In PMC7819943, “Rice protein-binding microarrays: a tool to detect cis-acting elements near promoter regions in rice”:
Some of the results follow.

Protein sequences, listed by entry. Tags and fused reporters are not part of them.
UniProt Q0JBA9, entry or part of it: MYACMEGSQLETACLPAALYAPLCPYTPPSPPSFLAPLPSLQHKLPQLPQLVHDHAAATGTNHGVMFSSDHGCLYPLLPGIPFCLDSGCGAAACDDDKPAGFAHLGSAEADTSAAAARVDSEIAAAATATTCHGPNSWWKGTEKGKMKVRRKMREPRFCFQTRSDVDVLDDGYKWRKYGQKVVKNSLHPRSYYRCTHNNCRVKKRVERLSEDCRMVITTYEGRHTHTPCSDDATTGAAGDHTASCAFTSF

The sequences below were run against OsWRKY34 (Oryza sativa, UniProt Q0JBA9 1-250) (assay: protein-binding microarray (RPBM); PBS, 2% BSA, 51.3 ng/ul salmon testes DNA, 50 uM zinc acetate, 200 nM TF, 25 C, 1 h; high values mean tight binding). Conditions: protein: recombinant; tags: N-terminal polyhistidine and DsRed monomer fusion (pET32a); label: CyDye5-dUTP incorporated in the synthesized complementary strand; 3' TTTTT single-stranded linker to array surface; dsDNA, one strand shown.
Summary of the method: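 Transcription factors, each fused N-terminally to a polyhistidine tag and DsRed, were expressed in E. coli BL21-CodonPlus and purified on Ni–NTA. A custom Agilent array was made double-stranded by primer extension with Cy5-dUTP and blocked with 2% BSA. It was incubated with 200 nM protein in PBS, 2% BSA, salmon testes DNA and 50 µM zinc acetate at 25 °C for 1 h, then washed. The binding signal is per-feature fluorescence intensity (arbitrary units) read on an Axon 4000B scanner.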

Sequence | binding signal
TTGCTCACTTGTTCTGTTCTTGCCCGGTCAACTTGCGACGCGGAGTCACCTAGTGCAG | 8760 fluorescence intensity (a.u.)
GGCGTTGACGTGGCGATGTTGACCTAGTATTTGTCCCACGCGGAGTCACCTAGTGCAG | 8350 fluorescence intensity (a.u.)
TTTATTTTCTAAAATTTTATACCCTGCCAATTCACGTGTTCGGAGTCACCTAGTGCAG | 8870 fluorescence intensity (a.u.)
TATATATATATATATATATATAGTAAAAGTAACTTACGTACGGAGTCACCTAGTGCAG | 10600 fluorescence intensity (a.u.)
TTCTTGGGGCTGGAGAGGGTGGGGATGGTGGTGCGGATGCCGGAGTCACCTAGTGCAG | 15000 fluorescence intensity (a.u.)
CTACACCCCACACCGCTTCCACGTACCTTGTATTTATCATCGGAGTCACCTAGTGCAG | 15200 fluorescence intensity (a.u.)
GGTAGGGTTGGGATGGGATGTGCAAGTAACCCGGGTGGATCGGAGTCACCTAGTGCAG | 10000 fluorescence intensity (a.u.)
CGACGGAGAAATTATTTTCTATTTTTTTGTTTTTGTTTCCCGGAGTCACCTAGTGCAG | 10900 fluorescence intensity (a.u.)
CTCTCCAGTTGCTTCCATTTCCAGAGATATGCCATCGTTGCGGAGTCACCTAGTGCAG | 10100 fluorescence intensity (a.u.)
ACCCTTTCCCATTTACACCCGCCACCTAGCTTAAACCCATCGGAGTCACCTAGTGCAG | 8960 fluorescence intensity (a.u.)
GCCTCCGCCGTCGAACTTTTCCCCGCCGACCGACACCCTTCGGAGTCACCTAGTGCAG | 11200 fluorescence intensity (a.u.)
CCCAATCTCTGCAACTGCACCATGATCCACTAGTAGTTATCGGAGTCACCTAGTGCAG | 8110 fluorescence intensity (a.u.)
GATCACCACCACCGTGAGTTCGGAGTTTTCTTTGTTTTTTCGGAGTCACCTAGTGCAG | 10000 fluorescence intensity (a.u.)
CGTCCGATCCACCGATTTGCCACGAATTGCTGTTATTGTTCGGAGTCACCTAGTGCAG | 10500 fluorescence intensity (a.u.)
ACTGCTATTGTTGTTCTTACCATCACAATCTGTTTTTCTTCGGAGTCACCTAGTGCAG | 13300 fluorescence intensity (a.u.)
ACTGCCGCCGCCGCCGCCACTCCATCCACTCTGCCACCGCCGGAGTCACCTAGTGCAG | 8030 fluorescence intensity (a.u.)
TACCGTTCATCCACGTCTCATCTAATCTCATCCGTCCGCTCGGAGTCACCTAGTGCAG | 8540 fluorescence intensity (a.u.)
CCCTACTAGAATATATGATCTCGCCTCATCTTTTATTTGCCGGAGTCACCTAGTGCAG | 8150 fluorescence intensity (a.u.)
CATCTCCTCGCATGCAACCACGTACACCTCCTCGTCTATGCGGAGTCACCTAGTGCAG | 8400 fluorescence intensity (a.u.)
GGGCGTCGAGCGGGTTGGAGGGTTTCTTGAGCGGGTTCGCCGGAGTCACCTAGTGCAG | 9020 fluorescence intensity (a.u.)
GCAAACATCATCTCTTTTTTCTGTATCTGCTCTATTTACACGGAGTCACCTAGTGCAG | 8780 fluorescence intensity (a.u.)

Sequence | binding signal
CTCCACGCGCACCTCGCCGCGTCCCTGATCTGATTGATTGCGGAGTCACCTAGTGCAG | 10200 fluorescence intensity (a.u.)
GGCTCTTTTAAGTCTTGACAGACGACGGCAGCAGTTTTTCCGGAGTCACCTAGTGCAG | 8760 fluorescence intensity (a.u.)
GATGACTTGCGATGTCGCCTTTTGATGTTTTTATGCATGCCGGAGTCACCTAGTGCAG | 11200 fluorescence intensity (a.u.)
CTATAATCCGCTTTCCACATAATGTCACGGTCTCCAATCTCGGAGTCACCTAGTGCAG | 8230 fluorescence intensity (a.u.)
GAGCTCGGCGAAATCGATCTGTGGGAGGGAGGGCGGCGAGCGGAGTCACCTAGTGCAG | 9110 fluorescence intensity (a.u.)
TGGATACTTGGCGTTGGTGGGCTGGTTCTTATTGGATACGCGGAGTCACCTAGTGCAG | 8120 fluorescence intensity (a.u.)
ACCCGCGCCTCTCGGAGTCCGACTCTATCCACTCCCGCGACGGAGTCACCTAGTGCAG | 8030 fluorescence intensity (a.u.)
TGGCTGGTGTTTTAGGCTAGGGATGTCCTTTTCGCTTACCCGGAGTCACCTAGTGCAG | 8100 fluorescence intensity (a.u.)
CCACCACCGCCACCGCCACCGCCACCGCCCCTACACCTGCCGGAGTCACCTAGTGCAG | 9350 fluorescence intensity (a.u.)
CACTCCAACCAAAGTGACCGTTGCAACCTCATCTCCGCTCCGGAGTCACCTAGTGCAG | 9740 fluorescence intensity (a.u.)
AACCTCACCGCAAACCTCACCTGGTTCTTCTTCCTCGCATCGGAGTCACCTAGTGCAG | 10100 fluorescence intensity (a.u.)
AGCTTAATGTTCACTTGACTAATTAGTTCATTATTCCACACGGAGTCACCTAGTGCAG | 8940 fluorescence intensity (a.u.)
TGTTTTCTCTGAATTGGTGTGTGTGTGTTCAGTGGCAAAGCGGAGTCACCTAGTGCAG | 8080 fluorescence intensity (a.u.)
GTCATATGATAACTACTATATTTACTTGATAATTCGTCCTCGGAGTCACCTAGTGCAG | 8570 fluorescence intensity (a.u.)
GTACACCTTACGACTGTACAGCATCCCAATCAAACATTTCCGGAGTCACCTAGTGCAG | 11000 fluorescence intensity (a.u.)
TAAACTATATGTCTGACCGCTTGCAGAACTACTGATTGACCGGAGTCACCTAGTGCAG | 9300 fluorescence intensity (a.u.)
GTTTCACATTTGTGTGTTTTTGGTTGCAAATGCTTTGTCTCGGAGTCACCTAGTGCAG | 9520 fluorescence intensity (a.u.)
TCCTTGCACAATCATTATTCCCTTTCTTGCTTACTTTCTTCGGAGTCACCTAGTGCAG | 9810 fluorescence intensity (a.u.)
CCGTTAGTGAACATGTAAATATTTTTCACTCTACTTAATACGGAGTCACCTAGTGCAG | 8960 fluorescence intensity (a.u.)
TTGTAGGGGCGTTCTTGTCAATCTTTTGTCCCCAACTTTCCGGAGTCACCTAGTGCAG | 8900 fluorescence intensity (a.u.)
CATGGTGACATGTTGTGGGGCTGTGTCTTGTGGGTACAGTCGGAGTCACCTAGTGCAG | 8650 fluorescence intensity (a.u.)

Reformatted: results already given
Sequence	binding signal
AACCTCACCGCAAACCTCACCTGGTTCTTCTTCCTCGCATCGGAGTCACCTAGTGCAG	10100 fluorescence intensity (a.u.)
AGCTTAATGTTCACTTGACTAATTAGTTCATTATTCCACACGGAGTCACCTAGTGCAG	8940 fluorescence intensity (a.u.)
